{"source": "PubChem BioAssay AID1159584 – Peter MacCallum Cancer Centre, 2016", "assay": "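Knock-downs that harm CDH1-null cells more than parental MCF10A cells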 (primary screen)", "cells": "human MCF10A breast epithelial cells, parental and CDH1-null", "knock-down reagent": "siRNA against human genes", "read-out": "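Cell viability by CellTiter-Glo ATP luminescence, each line scaled to the mean of mock wells across plates, then CDH1-null over parental ratio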", "reading the numbers": "CDH1-null / parental viability ratio: higher = CDH1-null cells survive relatively better than parental; CDH1-null viability vs mock: higher = more viable CDH1-null cells", "units": "CDH1-null viability vs mock in fraction of mock", "note": "The whole screen tested about 18,000 reagents; below is a random part of them. Further read-outs or replicates are left out here. Reagent sequences are not shown. The record does not give: the amount of reagent, the time to read-out."}
{"gene": "CAPSL", "CDH1-null / parental viability ratio": 1.32, "CDH1-null viability vs mock": 0.9}
{"gene": "MAFK", "CDH1-null / parental viability ratio": 1.03, "CDH1-null viability vs mock": 1.02}
{"gene": "PPIH", "CDH1-null / parental viability ratio": 1.02, "CDH1-null viability vs mock": 1}
{"gene": "ARRDC5", "CDH1-null / parental viability ratio": 1.16, "CDH1-null viability vs mock": 0.94}
{"gene": "KDM6A", "CDH1-null / parental viability ratio": 1.29, "CDH1-null viability vs mock": 0.72}
{"gene": "PPP1CC", "CDH1-null / parental viability ratio": 1.36, "CDH1-null viability vs mock": 0.9}
{"gene": "MAPK12", "CDH1-null / parental viability ratio": 0.94, "CDH1-null viability vs mock": 1.02}
{"gene": "PMCH", "CDH1-null / parental viability ratio": 0.67, "CDH1-null viability vs mock": 0.59}
{"gene": "CNTN1", "CDH1-null / parental viability ratio": 1.1, "CDH1-null viability vs mock": 1.12}
{"gene": "CPS1", "CDH1-null / parental viability ratio": 0.91, "CDH1-null viability vs mock": 0.92}
{"gene": "CLEC18B", "CDH1-null / parental viability ratio": 0.92, "CDH1-null viability vs mock": 0.74}
{"gene": "CD36", "CDH1-null / parental viability ratio": 1.02, "CDH1-null viability vs mock": 0.9}
{"gene": "LOC100288884 (retired record)", "CDH1-null / parental viability ratio": 1.1, "CDH1-null viability vs mock": 0.34}
{"gene": "IFNW1", "CDH1-null / parental viability ratio": 1.33, "CDH1-null viability vs mock": 0.48}
{"gene": "GLUD2", "CDH1-null / parental viability ratio": 0.94, "CDH1-null viability vs mock": 0.8}
{"gene": "SPIN4", "CDH1-null / parental viability ratio": 1.11, "CDH1-null viability vs mock": 1}
{"gene": "CATIP", "CDH1-null / parental viability ratio": 1.28, "CDH1-null viability vs mock": 0.82}
{"gene": "NOPCHAP1", "CDH1-null / parental viability ratio": 1.04, "CDH1-null viability vs mock": 1.04}
{"gene": "POU6F1", "CDH1-null / parental viability ratio": 0.9, "CDH1-null viability vs mock": 0.88}
{"gene": "KRT8", "CDH1-null / parental viability ratio": 1.03, "CDH1-null viability vs mock": 1.04}
{"gene": "NOMO1", "CDH1-null / parental viability ratio": 0.83, "CDH1-null viability vs mock": 0.88}
{"gene": "FEZF2", "CDH1-null / parental viability ratio": 0.98, "CDH1-null viability vs mock": 0.9}
{"gene": "OR4F4", "CDH1-null / parental viability ratio": 0.99, "CDH1-null viability vs mock": 0.76}
{"gene": "ADGRL3", "CDH1-null / parental viability ratio": 0.79, "CDH1-null viability vs mock": 0.86}
{"gene": "ZNF827", "CDH1-null / parental viability ratio": 1.14, "CDH1-null viability vs mock": 0.97}
{"gene": "RBBP6", "CDH1-null / parental viability ratio": 1.04, "CDH1-null viability vs mock": 0.78}
{"gene": "MISP", "CDH1-null / parental viability ratio": 0.94, "CDH1-null viability vs mock": 0.84}
{"gene": "H2BC18", "CDH1-null / parental viability ratio": 1, "CDH1-null viability vs mock": 0.9}
{"gene": "KRABD2", "CDH1-null / parental viability ratio": 1.3, "CDH1-null viability vs mock": 0.6}
{"gene": "KIAA1328", "CDH1-null / parental viability ratio": 1.18, "CDH1-null viability vs mock": 1.04}
{"gene": "DOHH", "CDH1-null / parental viability ratio": 1.12, "CDH1-null viability vs mock": 1.02}
{"gene": "C8G", "CDH1-null / parental viability ratio": 1, "CDH1-null viability vs mock": 0.82}
{"gene": "SORL1", "CDH1-null / parental viability ratio": 0.78, "CDH1-null viability vs mock": 0.56}
{"gene": "CCDC43", "CDH1-null / parental viability ratio": 0.87, "CDH1-null viability vs mock": 0.82}
{"gene": "IFI44L", "CDH1-null / parental viability ratio": 1.08, "CDH1-null viability vs mock": 0.81}
